According to the supplement of paper PMC8728848:
Some of the results follow.

Legend:
Experiment in all cases: glycan array binding signal (z-score within array); higher = stronger binding
Settings in all cases: glycan notation: IUPAC condensed, linker removed
[1] = tested on: Neu5Ac(a2-3)Gal(b1-3)GlcNAc(b1-2)[Neu5Ac(a2-3)Gal(b1-3)GlcNAc(b1-4)]Man(a1-6)[Neu5Ac(a2-3)Gal(b1-3)GlcNAc(b1-2)Man(a1-3)]Man(b1-4)GlcNAc(b1-4)GlcNAc
Summary of the method: (§1)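 The binding signal is a Z-score computed within each array and averaged over linkers. Arrays of the same protein sequence at different concentrations or buffers were also averaged together. Data originate from 3228 arrays in the Consortium for Functional Glycomics database, kept only where the protein sequence was available.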

[2] = tested on: Neu5Ac(a2-3)Gal(b1-3)GlcNAc(b1-3)Gal(b1-3)GlcNAc
Summary of the method: as §1

[3] = tested on: Neu5Ac(a2-3)Gal(b1-3)GlcNAc(b1-3)Gal(b1-4)GlcNAc
Summary of the method: as §1

[4] = tested on: Neu5Ac(a2-3)Gal(b1-3)GlcNAc(b1-3)GalNAc
Summary of the method: as §1

[5] = tested on: Neu5Ac(a2-3)Gal(b1-3)GlcNAc(b1-6)GalNAc
Summary of the method: as §1

[6] = tested on: Neu5Ac(a2-3)Gal(b1-3)GlcNAc6S
Summary of the method: as §1

[7] = tested on: Neu5Ac(a2-3)Gal(b1-3)GlcNAc
Summary of the method: as §1

[8] = tested on: Neu5Ac(a2-3)Gal(b1-3)[Fuc(a1-4)]GlcNAc(b1-3)Gal(b1-3)[Fuc(a1-4)]GlcNAc
Summary of the method: as §1

[9] = tested on: Neu5Ac(a2-3)Gal(b1-3)[Fuc(a1-4)]GlcNAc(b1-3)Gal(b1-4)[Fuc(a1-3)]GlcNAc
Summary of the method: as §1

[10] = tested on: Neu5Ac(a2-3)Gal(b1-3)[Fuc(a1-4)]GlcNAc
Summary of the method: as §1

[11] = tested on: Neu5Ac(a2-3)Gal(b1-3)[GlcNAc(b1-6)]GalNAc
Summary of the method: as §1

[12] = tested on: Neu5Ac(a2-3)Gal(b1-3)[Neu5Ac(a2-6)]GalNAc
Summary of the method: as §1

[13] = tested on: Neu5Ac(a2-3)Gal(b1-3)[Neu5Ac(a2-6)]GlcNAc(b1-3)[Fuc(a1-3)[Gal(b1-4)]GlcNAc(b1-6)]Gal(b1-4)Glc
Summary of the method: as §1

[14] = tested on: Neu5Ac(a2-3)Gal(b1-3)]Neu5Ac(a2-3)Gal(b1-4)]GlcNAc
Summary of the method: as §1

[15] = tested on: Neu5Ac(a2-3)Gal(b1-4)GlcNAc(b1-2)Man(a1-3)[GlcNAc(b1-4)][Neu5Ac(a2-3)Gal(b1-4)GlcNAc(b1-2)Man(a1-6)]Man(b1-4)GlcNAc(b1-4)GlcNAc
Summary of the method: as §1

[16] = tested on: Neu5Ac(a2-3)Gal(b1-4)GlcNAc(b1-2)Man(a1-3)[Neu5Ac(a2-3)Gal(b1-4)GlcNAc(b1-2)Man(a1-6)]Man(b1-4)GlcNAc(b1-4)GlcNAc
Summary of the method: as §1

[17] = tested on: Neu5Ac(a2-3)Gal(b1-4)GlcNAc(b1-2)Man(a1-3)[Neu5Ac(a2-3)Gal(b1-4)GlcNAc(b1-2)Man(a1-6)]Man(b1-4)GlcNAc(b1-4)[Fuc(a1-6)]GlcNAc
Summary of the method: as §1

[18] = tested on: Neu5Ac(a2-3)Gal(b1-4)GlcNAc(b1-2)Man(a1-3)[Neu5Ac(a2-6)Gal(b1-4)GlcNAc(b1-2)Man(a1-6)]Man(b1-4)GlcNAc(b1-4)GlcNAc
Summary of the method: as §1

[19] = tested on: Neu5Ac(a2-3)Gal(b1-4)GlcNAc(b1-2)Man
Summary of the method: as §1

[20] = tested on: Neu5Ac(a2-3)Gal(b1-4)GlcNAc(b1-2)[Neu5Ac(a2-3)Gal(b1-4)GlcNAc(b1-4)]Man(a1-3)[GlcNAc(b1-4)][Neu5Ac(a2-3)Gal(b1-4)GlcNAc(b1-2)[Neu5Ac(a2-3)Gal(b1-4)GlcNAc(b1-6)]Man(a1-6)]Man(b1-4)GlcNAc(b1-4)GlcNAc
Summary of the method: as §1

[21] = tested on: Neu5Ac(a2-3)Gal(b1-4)GlcNAc(b1-2)[Neu5Ac(a2-3)Gal(b1-4)GlcNAc(b1-4)]Man(a1-3)[GlcNAc(b1-4)][Neu5Ac(a2-3)Gal(b1-4)GlcNAc(b1-4)Man(a1-6)]Man(b1-4)GlcNAc(b1-4)GlcNAc
Summary of the method: as §1

[22] = tested on: Neu5Ac(a2-3)Gal(b1-4)GlcNAc(b1-2)[Neu5Ac(a2-3)Gal(b1-4)GlcNAc(b1-6)]Man(a1-6)[Neu5Ac(a2-3)Gal(b1-4)GlcNAc(b1-2)Man(a1-3)][GlcNAc(b1-4)]Man(b1-4)GlcNAc(b1-4)GlcNAc
Summary of the method: as §1

[23] = tested on: Neu5Ac(a2-3)Gal(b1-4)GlcNAc(b1-3)Gal(b1-3)GlcNAc
Summary of the method: as §1

[24] = tested on: Neu5Ac(a2-3)Gal(b1-4)GlcNAc(b1-3)Gal(b1-4)GlcNAc(b1-2)Man(a1-3)[Neu5Ac(a2-3)Gal(b1-4)GlcNAc(b1-3)Gal(b1-4)GlcNAc(b1-2)Man(a1-6)]Man(b1-4)GlcNAc(b1-4)GlcNAc
Summary of the method: as §1

[25] = tested on: Neu5Ac(a2-3)Gal(b1-4)GlcNAc(b1-3)Gal(b1-4)GlcNAc(b1-3)Gal(b1-4)GlcNAc(b1-2)Man(a1-3)[Neu5Ac(a2-3)Gal(b1-4)GlcNAc(b1-3)Gal(b1-4)GlcNAc(b1-3)Gal(b1-4)GlcNAc(b1-2)Man(a1-6)]GalNAc
Summary of the method: as §1

[26] = tested on: Neu5Ac(a2-3)Gal(b1-4)GlcNAc(b1-3)Gal(b1-4)GlcNAc(b1-3)Gal(b1-4)GlcNAc
Summary of the method: as §1

[27] = tested on: Neu5Ac(a2-3)Gal(b1-4)GlcNAc(b1-3)Gal(b1-4)GlcNAc(b1-3)GalNAc
Summary of the method: as §1

[28] = tested on: Neu5Ac(a2-3)Gal(b1-4)GlcNAc(b1-3)Gal(b1-4)GlcNAc(b1-3)[Neu5Ac(a2-3)Gal(b1-4)GlcNAc(b1-3)Gal(b1-4)GlcNAc(b1-6)]GalNAc
Summary of the method: as §1

[29] = tested on: Neu5Ac(a2-3)Gal(b1-4)GlcNAc(b1-3)Gal(b1-4)GlcNAc(b1-6)[Gal(b1-3)]GalNAc
Summary of the method: as §1

[30] = tested on: Neu5Ac(a2-3)Gal(b1-4)GlcNAc(b1-3)Gal(b1-4)GlcNAc
Summary of the method: as §1

[31] = tested on: Neu5Ac(a2-3)Gal(b1-4)GlcNAc(b1-3)Gal(b1-4)[Fuc(a1-3)]GlcNAc
Summary of the method: as §1

[32] = tested on: Neu5Ac(a2-3)Gal(b1-4)GlcNAc(b1-3)GalNAc
Summary of the method: as §1

Substance: MpAFP RI GFP (Marinomonas primoryensis)
- glycan array binding signal (z-score) [1]: 0.633
- glycan array binding signal (z-score) [2]: -0.728
- glycan array binding signal (z-score) [3]: -0.468
- glycan array binding signal (z-score) [4]: -0.699
- glycan array binding signal (z-score) [5]: -0.526
- glycan array binding signal (z-score) [6]: -0.213
- glycan array binding signal (z-score) [7]: -0.479
- glycan array binding signal (z-score) [8]: 0.153
- glycan array binding signal (z-score) [9]: -0.14
- glycan array binding signal (z-score) [10]: -0.138
- glycan array binding signal (z-score) [11]: -0.527
- glycan array binding signal (z-score) [12]: -0.687
- glycan array binding signal (z-score) [13]: 0.017
- glycan array binding signal (z-score) [14]: -0.556
- glycan array binding signal (z-score) [15]: -0.405
- glycan array binding signal (z-score) [16]: -0.33
- glycan array binding signal (z-score) [17]: -0.002
- glycan array binding signal (z-score) [18]: 0.762
- glycan array binding signal (z-score) [19]: 1.94
- glycan array binding signal (z-score) [20]: -0.808
- glycan array binding signal (z-score) [21]: -0.276
- glycan array binding signal (z-score) [22]: -0.012
- glycan array binding signal (z-score) [23]: -0.764
- glycan array binding signal (z-score) [24]: 0.015
- glycan array binding signal (z-score) [25]: 1.64
- glycan array binding signal (z-score) [26]: -0.621
- glycan array binding signal (z-score) [27]: -0.471
- glycan array binding signal (z-score) [28]: 0.247
- glycan array binding signal (z-score) [29]: -0.297
- glycan array binding signal (z-score) [30]: 0.123
- glycan array binding signal (z-score) [31]: -0.446
- glycan array binding signal (z-score) [32]: -0.519
